Primary screen of a compound library

Values are the deposited “Percent Effect”, in %.
How 0% and 100% were set is not recorded. Most values in the screen are low, and negative values occur.
The compounds are a random part of those screened.
A dash means the value is not listed here; it may have been measured.

Mtb growth Cornell: 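Whole-cell assay for inhibitors of Mycobacterium tuberculosis growth, labelled Cornell in the record; the read-out is not stated. The concentration is filed as 10 mM, unlikely as a test dose, so the dose is not known. Higher means stronger inhibition (inferred from two other growth screens of the library). Of about 53,000 compounds tested this way, about 900 (1.7%) reached 50% or more in at least one test.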
Mtb heat-shock: 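Assay on Mycobacterium tuberculosis, filed only as a heat shock assay from Cornell; the read-out is not stated. The concentration is filed as 10 mM, unlikely as a test dose, so the dose is not known. Higher reads as stronger inhibition (inferred: compounds with an IC50 in retests scored well above the rest). Of about 69,000 compounds tested this way, about 930 (1.4%) reached 50% or more in at least one test.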

| Compound | Mtb growth Cornell | Mtb heat-shock |
|---|---|---|
| `COc1cc(F)ccc1NC(=O)NCCNC(=O)OC(C)(C)C` | 17.29 | -2.164 |
| `CNC(C)Cc1ccccc1Sc1ccc(O)cc1.Cl` (configuration not stated) | 105.4 | 5.856 |
| `COC[C@H](C)Nc1cc(C)c2ccc(SC)cc2n1` | 12.45 | 3.145 |
| `Cc1ccc(NCc2cncc3c2CCN(Cc2ccccn2)C3)nn1.Cl.Cl` | 38.92 | -2.641 |
| `CN(C)c1cccc(C2CCN(c3ncccn3)CC2)n1` | 24.65 | 6.646 |
| `Cc1cn2c(n1)CCC(NC(=O)CCn1cncn1)C2` (configuration not stated) | 0.2302 | -4.825 |
| `O=C(CCSc1ccccc1F)N1CCN(c2cnccn2)CC1` | 9.863 | -12.47 |
| `COCCNC(=O)c1cccnc1Sc1cc(OC)ccc1OC` | -23.48 | 40.75 |
| `Cc1ccccc1-c1noc(CN2CCc3cncnc3C2)n1` | - | 22.4 |
| `CN1CCN(Cc2ccc(-c3ccc(C(N)=O)cc3)nc2)CC1` | -9.191 | -0.5393 |
| `Cc1ccc(-n2nnc(CC(=O)N3CCN(C(C)C)CC3)c2C)cc1` | -4.858 | -0.09699 |
| `[H][C@@]12CCC(=O)N(c3ccccc3)[C@]1([H])CCN2C(=O)c1ccco1` | 2.65 | 0.4918 |
| `Cl.NC(CNS(=O)(=O)Cc1cccc2cccnc12)c1ccccc1` (configuration not stated) | - | -15.27 |
| `CCS(=O)(=O)c1nnc([C@@H](N)Cc2ccccc2)o1` | -5.217 | -15.03 |
| `Cn1ccnc1CN1CCN(CCOc2ccccc2C#N)CC1` | -6.921 | -9.928 |
| `CNC(=O)c1cc(-n2ccnc2-c2cnc(N(C)C)nc2)ccc1OC` | -49.77 | -2.086 |
| `Cc1cc(Br)c(O)c(-c2nc(N3CCCCC3)sc2C)c1` | -35.19 | -31.06 |
| `O=C(O)C(F)(F)F.[H][C@@]12COC[C@]1(C(=O)NCc1cccs1)CN(c1ncccn1)C2` | -11.53 | 4.649 |
| `CCC(C(=O)N1CCCSCC1)N1CCCC1=O` (configuration not stated) | -31.04 | -11.29 |
| `Cc1nn(C)c(N(C)C)c1CNC1CCc2c(F)cccc21.Cl` (configuration not stated) | - | 14.31 |
| `O=C(O)C(F)(F)F.O=C(c1ccncc1F)N1CCc2ncnc(C3CC3)c2CC1` | -42 | 3.451 |
| `CCc1ccc(C(=O)O)cc1S(=O)(=O)Nc1ccc(=O)n(C)c1` | -4.02 | -4.362 |
| `Cc1cccc(CS(=O)(=O)NCC(O)Cc2ccccc2)c1` (configuration not stated) | 5.842 | 7.273 |
| `COc1ccc(CNC2CCN(c3ccccc3)C2)c(OC)c1OC` (configuration not stated) | 38.55 | -9.792 |
| `N#Cc1ccc(N2CCC(NS(=O)(=O)c3cccs3)CC2)c(F)c1` | -23.11 | 10.08 |
| `COC(=O)[C@@H]1Cc2ncn(C)c2CN1S(=O)(=O)c1ccc(OC)cc1` | -1.027 | -9.577 |
| `CN1CCN(C(=O)c2ncn3c2CN(C)S(=O)(=O)c2ccccc2-3)CC1.O=C(O)C(F)(F)F` | 12.4 | -21.31 |
| `COC(=O)c1cccc(CNC(=O)c2cc(C(C)C)n(C)n2)c1` | 7.483 | -22.4 |
| `O=C(O)C(F)(F)F.c1coc(CN2CCCn3c(nnc3Cn3cccc3)C2)c1` | 21.05 | 5.407 |
| `CCCn1nc(C)c(CN2CC3(CCOC3)CCC2=O)c1C` (configuration not stated) | 7.749 | -3.494 |
| `O=S(=O)(Nc1ncccc1F)c1cc(Cl)cc2c1OCC2` | 24.28 | 21.68 |
| `Cc1ccc(CSc2nc(N)cc(NCC(=O)N3CCNCC3)n2)cc1` | -47.88 | 4.768 |
| `Cc1nc[nH]c1CN1CCCC12CCN(c1ccccn1)CC2` | -80.28 | 5.263 |
| `Cc1nc(NS(=O)(=O)c2ccc(F)c(Br)c2)no1` | - | -8.87 |
| `CCNc1ncc(C(=O)NC2CCSC2)cn1` (configuration not stated) | -13.85 | 7.872 |
| `[H][C@]12CCN(C(=O)c3cnccn3)[C@@]1([H])CC[C@@H](COCC)O2` | - | -29.89 |
| `CCCC1CCN(C(=O)c2coc(COc3ccc(OC)cc3)n2)C1` (configuration not stated) | 22.4 | 19.91 |
| `CCOc1cccnc1C(=O)N1CCCN(c2nc(C)cs2)CC1` | 17.16 | -1.495 |
| `COc1ccccc1CC(C)(C)NC(=O)CC(F)(F)F` | 12.46 | -14.45 |
| `O=C(O)C(F)(F)F.[H][C@@]12COC[C@]1(c1nc(C)no1)CN(C(C)C)C2` | 10.24 | -31.49 |
| `CCc1csc(CNC2CCN(Cc3ccccc3)C2)n1` (configuration not stated) | 19.29 | 23.26 |
| `CCc1nnsc1C(=O)N1CCCN(Cc2cnn(C)c2)CC1` | - | -8.062 |
| `CSCC(C)NS(=O)(=O)c1ccc(C)c(N(C)C)c1` (configuration not stated) | 5.949 | -3.907 |
| `CC(C)c1ccc(C(O)Cn2c(=O)c(C#N)cn(C3CC3)c2=O)cc1` (configuration not stated) | - | -1.147 |
| `CCSCCC(=O)NC1CCN(C(C)c2ccccc2)CC1` (configuration not stated) | -9.719 | -8.755 |

Source: ChEMBL document CHEMBL3988442, “University of Dundee, Small-Polar-MMV Screening Library” (2021).